Values from PubChem BioAssay AID743458 (Peter MacCallum Cancer Centre, 2014)
The whole screen tested about 1,800 reagents; this is an unselected part. In the full data, 732 (41%) got an active call. 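Calls are per siRNA reagent; a gene was deemed confirmed only if most of its four siRNAs scored.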 Entries without a mark were called inactive. The numbers tell different reagents against one gene apart.

- Test: 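Retest earlier hits with independent siRNAs per gene for restoring vorinostat sensitivity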 (follow-up of hits)
- Cell system: human HCT116-VR colon cancer cells made resistant to vorinostat
- Knock-down reagent: single siRNA or pool against human genes, 25 nM per single siRNA
- Timing: about 72 h after transfection, including 24 h of drug
- Treatment: vorinostat, 2.5 µM final, for 24 h
- Measurement: 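Live-cell fluorescent viability and luminescent caspase 3/7 activity after vorinostat treatment, background subtracted, mean of duplicate plates, as fold change over mock-transfected wells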
- Scale: viability relative to mock: higher = more living cells than mock; caspase activity relative to mock: higher = more apoptosis than mock
- Active means: 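An siRNA counts as active if classed as reduced viability or as caspase activation, otherwise inactive; a hit class needed wells that remained healthy in the absence of drug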

Against GOLGA1 #1, the values are viability relative to mock 1.05; caspase activity relative to mock 2.25; viability hit class no change; caspase hit class no change.
Against GOLGA1 #2 the deposit lists viability relative to mock 0.79 (active); caspase activity relative to mock 6.7; viability hit class no change; caspase hit class caspase activation.
GOLGA1 #3 showed viability relative to mock 1.05; caspase activity relative to mock 1.04; viability hit class no change; caspase hit class no change.
Against GOLGA1 #4 the deposit lists viability relative to mock 0.66; caspase activity relative to mock 1.77; viability hit class no change; caspase hit class no change.
Knock-down of EIF2B5 #1 resulted in: viability relative to mock 0.56 (active); caspase activity relative to mock 0.78; viability hit class reduced viability; caspase hit class no change.
EIF2B5 #2 gave viability relative to mock 0.45 (active); caspase activity relative to mock 1.55; viability hit class reduced viability; caspase hit class no change.
With knock-down of EIF2B5 #3, the screen gave viability relative to mock 0.47 (active); caspase activity relative to mock 0.84; viability hit class reduced viability; caspase hit class no change.
Against EIF2B5 #4, the entry reads viability relative to mock 0.57; caspase activity relative to mock 1.04; viability hit class no change; caspase hit class no change.
Silencing of SYTL3 #1 gave: viability relative to mock 1.01; caspase activity relative to mock 1.04; viability hit class no change; caspase hit class no change.
For SYTL3 #2, the entry reads viability relative to mock 0.96; caspase activity relative to mock 1.04; viability hit class no change; caspase hit class no change.
SYTL3 #3 gave viability relative to mock 0.98; caspase activity relative to mock 1.49; viability hit class no change; caspase hit class no change.
For SYTL3 #4, the entry reads viability relative to mock 1.04; caspase activity relative to mock 1.14; viability hit class no change; caspase hit class no change.
Against THOC5 #1, the entry reads viability relative to mock 0.74 (active); caspase activity relative to mock 4.02; viability hit class no change; caspase hit class caspase activation.
THOC5 #2 showed viability relative to mock 0.82 (active); caspase activity relative to mock 4.15; viability hit class no change; caspase hit class caspase activation.
Against THOC5 #3, the entry reads viability relative to mock 0.9 (active); caspase activity relative to mock 2.92; viability hit class no change; caspase hit class caspase activation.
Against THOC5 #4, the entry reads viability relative to mock 0.71 (active); caspase activity relative to mock 2.97; viability hit class no change; caspase hit class caspase activation.

2 neighbouring entries from above, for reference:
GOLGA1 #2 → viability relative to mock = 0.79 (active); caspase activity relative to mock = 6.7; viability hit class = no change; caspase hit class = caspase activation
GOLGA1 #3 → viability relative to mock = 1.05; caspase activity relative to mock = 1.04; viability hit class = no change; caspase hit class = no change

Further reagents follow.
SPRED3 #1 gave viability relative to mock 0.82 (active); caspase activity relative to mock 2.88; viability hit class no change; caspase hit class caspase activation.
Knock-down of SPRED3 #2 gave: viability relative to mock 0.94; caspase activity relative to mock 1.45; viability hit class no change; caspase hit class no change.
Knock-down of SPRED3 #3 gave: viability relative to mock 0.18 (active); caspase activity relative to mock 2.63; viability hit class reduced viability; caspase hit class caspase activation.
Knock-down of SPRED3 #4 resulted in: viability relative to mock 0.82; caspase activity relative to mock 2; viability hit class no change; caspase hit class no change.
With knock-down of CBX7 #1, the record shows viability relative to mock 1; caspase activity relative to mock 2.17; viability hit class no change; caspase hit class no change.
CBX7 #2 gave viability relative to mock 0.63 (active); caspase activity relative to mock 4.38; viability hit class no change; caspase hit class caspase activation.
Silencing of CBX7 #3 came out at: viability relative to mock 0.61 (active); caspase activity relative to mock 2.83; viability hit class no change; caspase hit class caspase activation.
Against CBX7 #4, the entry reads viability relative to mock 0.8; caspase activity relative to mock 1.8; viability hit class no change; caspase hit class no change.
Knock-down of OSBPL6 #1 came out at: viability relative to mock 0.66; caspase activity relative to mock 0.9; viability hit class no change; caspase hit class no change.
With knock-down of OSBPL6 #2, the screen gave viability relative to mock 0.89 (active); caspase activity relative to mock 4.37; viability hit class no change; caspase hit class caspase activation.
Against OSBPL6 #3, the entry reads viability relative to mock 0.52 (active); caspase activity relative to mock 2.75; viability hit class reduced viability; caspase hit class caspase activation.
For OSBPL6 #4, the values are viability relative to mock 0.69 (active); caspase activity relative to mock 3.12; viability hit class no change; caspase hit class caspase activation.
